According to US9522130B2, “Use of miR-221 and 222 lowering agents to prevent cardiovascular disease in diabetic subjects” (priority 2013, dated 2016):
At least one compound was matched to its structure with a doubt left.

Experiments:
p27^Kip1 [1] = experiment: p27Kip1 western blot in femoral arteries after wire injury; type: in vivo, mice; details: 4 mg/kg/d
p27^Kip1 [2] = experiment: p27Kip1 western blot in serum-stimulated VSMCs; type: cell-based; details: VSMCs from diabetic mice; 20% FBS; 100 nM
[3] = test system: diabetic and non-diabetic mice; experiment: Femoral artery wire injury, neointima formation / intimal thickening; type: in vivo; details: for intimal hyperplasia (neointima formation): IP 4 mg/kg/d, 14 days post-injury; for intimal thickening (intima:media ratio): local delivery, Pluronic-F 127 gel 100 μg
Description: FIG. 1. Neointimal hyperplasia is increased in an mTOR-independent manner in diabetic mice. Femoral artery wire injury was performed in the mice in diabetic mice (DM) and non-diabetic mice […] and neointima formation was assessed at 14 days post-injury. […] Data represent the mean±SEM. † indicates p<0.05 by ANOVA with Tukey's HSD.
FIG. 10. Diabetes induces an increase in miR-221/222 that increases intimal thickening. Intimal thickening was measured in the wire injured femoral arteries of diabetic and non-diabetic mice receiving a Pluronic gel containing either control oligonucleotide (NT) or 2′OMe-miR-222 (AS) after 14 days. Data represent the mean±SEM and † indicates p<0.05 by ANOVA using Tukey's HSD.
FIG. 14. […] Mean intima:media ratios of ND and DM mice following femoral artery wire injury and implantation of a Pluronic-F 127 gel containing either vehicle or rapamycin (100 μg) with and without administration of the ERK pathway inhibitor, U0126 (7.5 mg/kg/d). Bars indicate p<0.05 by ANOVA.

VSMCs = experiment: Proliferation and chemotaxis of VSMCs from diabetic mice; type: cell-based; details: VSMCs isolated from the mouse model of diabetes; 20% FBS 7 d / PDGF 10 ng/mL chemotaxis

CO[C@H]1C[C@@H]2CC[C@@H](C)[C@@](O)(O2)C(=O)C(=O)N2CCCC[C@H]2C(=O)O[C@H]([C@H](C)C[C@@H]2CC[C@@H](O)[C@H](OC)C2)CC(=O)[C@H](C)/C=C(\C)[C@@H](O)[C@@H](OC)C(=O)[C@H](C)C[C@H](C)/C=C/C=C/C=C/1C [rapamycin, Rapamycin]
p27Kip1 in injured arteries (p27^Kip1 [1]; diabetic mice): is lost in diabetic mice
p27Kip1 in injured arteries (p27^Kip1 [1]; non-diabetic mice): produce an increase
p27Kip1 levels in VSMCs (p27^Kip1 [2]): loss of effect
intimal hyperplasia (neointima formation) ([3]; diabetic mice): not the diabetic mice
intimal thickening (intima:media ratio) ([3]; diabetic mice): no longer effective at reducing intimal thickening
intimal hyperplasia (neointima formation) ([3]; non-diabetic control mice): effective in significantly reducing intimal hyperplasia in controls
intimal thickening (intima:media ratio) ([3]; non-diabetic mice): highly effective at reducing intimal thickening
VSMC proliferation and migration (VSMCs): a resistance to the effects
